Assay results reported in patent US20100184699A1, “Peptide Derived From Prostate-Related Protein As Cancer Vaccine Candidate For Prostate Cancer Patient Who Is Positive For Hla-A3 Super-Type Allele Molecule” (priority 2005, published 2010).
Part of at least one peptide drawing is inferred or uncertain, most often the ends. Some compounds share one wording; it may come from a single statement.

Test system: peptide-specific IgG in plasma of prostate cancer patients and healthy donors
Assay: Detection of peptide-specific IgG in plasma by ELISA
Format: binding, human
Settings: for IgG reactive to peptide in plasma: 1:100-diluted plasma; for level of peptide-reactive IgG after absorption: patient plasma incubated in wells coated with the corresponding peptide (FIG. 2); for frequency of detection of peptide-reactive IgG: plasma of prostate cancer patients, compared within PSA, PAP or PSMA peptides
[1] = Prostate cancer patient 10, A11
[2] = Prostate cancer patient 12, A11
[3] = Prostate cancer patient 13, A11
[4] = Prostate cancer patient 14, A33
[5] = Prostate cancer patient 17, A33
[6] = Prostate cancer patient 18, A33
[7] = Prostate cancer patient 19, A33
[8] = Prostate cancer patient 20, A33

## CC(C)[C@H](NC(=O)[C@H](CCCCN)NC(=O)[C@H](CC(N)=O)NC(=O)CNC(=O)[C@H](CCCNC(=N)N)NC(=O)[C@H](Cc1ccccc1)NC(=O)[C@@H](NC(=O)[C@@H](N)CCCCN)C(C)C)C(=O)N[C@@H](CCCCN)C(=O)O [PSMA 207-215]
Healthy donor 2, A3
  IgG reactive to peptide in plasma: + (IgG reactive to a corresponding peptide was judged to be positive when a difference of the optical density (OD) in a 1:100-diluted plasma was more than 100)
Healthy donor 3, A31
  IgG reactive to peptide in plasma: + (IgG reactive to a corresponding peptide was judged to be positive when a difference of the optical density (OD) in a 1:100-diluted plasma was more than 100)
Healthy donor 8, A31
  IgG reactive to peptide in plasma: + (IgG reactive to a corresponding peptide was judged to be positive when a difference of the optical density (OD) in a 1:100-diluted plasma was more than 100)
Healthy donor 9, A11
  IgG reactive to peptide in plasma: + (IgG reactive to a corresponding peptide was judged to be positive when a difference of the optical density (OD) in a 1:100-diluted plasma was more than 100)
Healthy donors
  IgG reactive to peptide in plasma, Total (positive/tested): 4/9
Prostate cancer patient 1, A31
  IgG reactive to peptide in plasma: + (IgG reactive to a corresponding peptide was judged to be positive when a difference of the optical density (OD) in a 1:100-diluted plasma was more than 100)
Prostate cancer patient 2, A31
  IgG reactive to peptide in plasma: + (IgG reactive to a corresponding peptide was judged to be positive when a difference of the optical density (OD) in a 1:100-diluted plasma was more than 100)
Prostate cancer patient 3, A31
  IgG reactive to peptide in plasma: + (IgG reactive to a corresponding peptide was judged to be positive when a difference of the optical density (OD) in a 1:100-diluted plasma was more than 100)
Prostate cancer patient 4, A31
  IgG reactive to peptide in plasma: + (IgG reactive to a corresponding peptide was judged to be positive when a difference of the optical density (OD) in a 1:100-diluted plasma was more than 100)
Prostate cancer patient 5, A31
  IgG reactive to peptide in plasma: + (IgG reactive to a corresponding peptide was judged to be positive when a difference of the optical density (OD) in a 1:100-diluted plasma was more than 100)
Prostate cancer patient 6, A31
  IgG reactive to peptide in plasma: + (IgG reactive to a corresponding peptide was judged to be positive when a difference of the optical density (OD) in a 1:100-diluted plasma was more than 100)
Prostate cancer patient 7, A11
  IgG reactive to peptide in plasma: + (IgG reactive to a corresponding peptide was judged to be positive when a difference of the optical density (OD) in a 1:100-diluted plasma was more than 100)
Prostate cancer patient 8, A11
  IgG reactive to peptide in plasma: + (IgG reactive to a corresponding peptide was judged to be positive when a difference of the optical density (OD) in a 1:100-diluted plasma was more than 100)
Prostate cancer patient 9, A11
  IgG reactive to peptide in plasma: + (IgG reactive to a corresponding peptide was judged to be positive when a difference of the optical density (OD) in a 1:100-diluted plasma was more than 100)
[1]
  IgG reactive to peptide in plasma: + (IgG reactive to a corresponding peptide was judged to be positive when a difference of the optical density (OD) in a 1:100-diluted plasma was more than 100)
Prostate cancer patient 11, A11
  IgG reactive to peptide in plasma: + (IgG reactive to a corresponding peptide was judged to be positive when a difference of the optical density (OD) in a 1:100-diluted plasma was more than 100)
[2]
  IgG reactive to peptide in plasma: + (IgG reactive to a corresponding peptide was judged to be positive when a difference of the optical density (OD) in a 1:100-diluted plasma was more than 100)
[3]
  IgG reactive to peptide in plasma: + (IgG reactive to a corresponding peptide was judged to be positive when a difference of the optical density (OD) in a 1:100-diluted plasma was more than 100)
[4]
  IgG reactive to peptide in plasma: + (IgG reactive to a corresponding peptide was judged to be positive when a difference of the optical density (OD) in a 1:100-diluted plasma was more than 100)
Prostate cancer patient 15, A33
  IgG reactive to peptide in plasma: + (IgG reactive to a corresponding peptide was judged to be positive when a difference of the optical density (OD) in a 1:100-diluted plasma was more than 100)
Prostate cancer patient 16, A33
  IgG reactive to peptide in plasma: + (IgG reactive to a corresponding peptide was judged to be positive when a difference of the optical density (OD) in a 1:100-diluted plasma was more than 100)
[5]
  IgG reactive to peptide in plasma: + (IgG reactive to a corresponding peptide was judged to be positive when a difference of the optical density (OD) in a 1:100-diluted plasma was more than 100)
[6]
  IgG reactive to peptide in plasma: + (IgG reactive to a corresponding peptide was judged to be positive when a difference of the optical density (OD) in a 1:100-diluted plasma was more than 100)
[7]
  IgG reactive to peptide in plasma: + (IgG reactive to a corresponding peptide was judged to be positive when a difference of the optical density (OD) in a 1:100-diluted plasma was more than 100)
[8]
  IgG reactive to peptide in plasma: + (IgG reactive to a corresponding peptide was judged to be positive when a difference of the optical density (OD) in a 1:100-diluted plasma was more than 100)
Prostate cancer patients
  IgG reactive to peptide in plasma, Total (positive/tested): 20/20
  level of peptide-reactive IgG after absorption: significantly diminished
  frequency of detection of peptide-reactive IgG: more frequently

## CC[C@H](C)[C@H](NC(=O)[C@H](CC(C)C)NC(=O)[C@@H]1CCCN1C(=O)[C@H](C)NC(=O)[C@H](C)NC(=O)CN)C(=O)N[C@@H](CC(C)C)C(=O)N[C@@H](CO)C(=O)N[C@@H](CCCNC(=N)N)C(=O)O [PSA 16-24]
Healthy donors
  IgG reactive to peptide in plasma, Total (positive/tested): 0/9
Prostate cancer patient 5, A31
  IgG reactive to peptide in plasma: + (IgG reactive to a corresponding peptide was judged to be positive when a difference of the optical density (OD) in a 1:100-diluted plasma was more than 100)
[7]
  IgG reactive to peptide in plasma: + (IgG reactive to a corresponding peptide was judged to be positive when a difference of the optical density (OD) in a 1:100-diluted plasma was more than 100)
Prostate cancer patients
  IgG reactive to peptide in plasma, Total (positive/tested): 2/20
  level of peptide-reactive IgG after absorption: significantly diminished
  frequency of detection of peptide-reactive IgG: more frequently

## C[C@H](NC(=O)[C@H](Cc1c[nH]c2ccccc12)NC(=O)[C@H](CCC(=O)O)NC(=O)[C@@H](NC(=O)[C@@H](N)CO)[C@@H](C)O)C(=O)N[C@@H](CCC(=O)O)C(=O)N[C@@H](CCC(=O)O)C(=O)N[C@@H](CC(N)=O)C(=O)N[C@@H](CO)C(=O)N[C@@H](CCCNC(=N)N)C(=O)O [PSMA 431-440]
Healthy donor 9, A11
  IgG reactive to peptide in plasma: + (IgG reactive to a corresponding peptide was judged to be positive when a difference of the optical density (OD) in a 1:100-diluted plasma was more than 100)
Healthy donors
  IgG reactive to peptide in plasma, Total (positive/tested): 1/9
Prostate cancer patient 2, A31
  IgG reactive to peptide in plasma: + (IgG reactive to a corresponding peptide was judged to be positive when a difference of the optical density (OD) in a 1:100-diluted plasma was more than 100)
Prostate cancer patient 3, A31
  IgG reactive to peptide in plasma: + (IgG reactive to a corresponding peptide was judged to be positive when a difference of the optical density (OD) in a 1:100-diluted plasma was more than 100)
Prostate cancer patient 4, A31
  IgG reactive to peptide in plasma: + (IgG reactive to a corresponding peptide was judged to be positive when a difference of the optical density (OD) in a 1:100-diluted plasma was more than 100)
Prostate cancer patient 5, A31
  IgG reactive to peptide in plasma: + (IgG reactive to a corresponding peptide was judged to be positive when a difference of the optical density (OD) in a 1:100-diluted plasma was more than 100)
Prostate cancer patient 6, A31
  IgG reactive to peptide in plasma: + (IgG reactive to a corresponding peptide was judged to be positive when a difference of the optical density (OD) in a 1:100-diluted plasma was more than 100)
Prostate cancer patient 7, A11
  IgG reactive to peptide in plasma: + (IgG reactive to a corresponding peptide was judged to be positive when a difference of the optical density (OD) in a 1:100-diluted plasma was more than 100)
Prostate cancer patient 8, A11
  IgG reactive to peptide in plasma: + (IgG reactive to a corresponding peptide was judged to be positive when a difference of the optical density (OD) in a 1:100-diluted plasma was more than 100)
Prostate cancer patient 9, A11
  IgG reactive to peptide in plasma: + (IgG reactive to a corresponding peptide was judged to be positive when a difference of the optical density (OD) in a 1:100-diluted plasma was more than 100)
[1]
  IgG reactive to peptide in plasma: + (IgG reactive to a corresponding peptide was judged to be positive when a difference of the optical density (OD) in a 1:100-diluted plasma was more than 100)
[2]
  IgG reactive to peptide in plasma: + (IgG reactive to a corresponding peptide was judged to be positive when a difference of the optical density (OD) in a 1:100-diluted plasma was more than 100)
[3]
  IgG reactive to peptide in plasma: + (IgG reactive to a corresponding peptide was judged to be positive when a difference of the optical density (OD) in a 1:100-diluted plasma was more than 100)
[4]
  IgG reactive to peptide in plasma: + (IgG reactive to a corresponding peptide was judged to be positive when a difference of the optical density (OD) in a 1:100-diluted plasma was more than 100)
[5]
  IgG reactive to peptide in plasma: + (IgG reactive to a corresponding peptide was judged to be positive when a difference of the optical density (OD) in a 1:100-diluted plasma was more than 100)
[6]
  IgG reactive to peptide in plasma: + (IgG reactive to a corresponding peptide was judged to be positive when a difference of the optical density (OD) in a 1:100-diluted plasma was more than 100)
[7]
  IgG reactive to peptide in plasma: + (IgG reactive to a corresponding peptide was judged to be positive when a difference of the optical density (OD) in a 1:100-diluted plasma was more than 100)
[8]
  IgG reactive to peptide in plasma: + (IgG reactive to a corresponding peptide was judged to be positive when a difference of the optical density (OD) in a 1:100-diluted plasma was more than 100)
Prostate cancer patients
  IgG reactive to peptide in plasma, Total (positive/tested): 16/20
  level of peptide-reactive IgG after absorption: significantly diminished
  frequency of detection of peptide-reactive IgG: more frequently
